# In the supplement of paper PMC12823440, “Inhibitors supercharge kinase turnover through native proteolytic circuits” (Nature, 2025):
# Sequences of proteins named here, by UniProt entry; tags and fusion partners are left off.
# UniProt Q16620, whole entry, looked up: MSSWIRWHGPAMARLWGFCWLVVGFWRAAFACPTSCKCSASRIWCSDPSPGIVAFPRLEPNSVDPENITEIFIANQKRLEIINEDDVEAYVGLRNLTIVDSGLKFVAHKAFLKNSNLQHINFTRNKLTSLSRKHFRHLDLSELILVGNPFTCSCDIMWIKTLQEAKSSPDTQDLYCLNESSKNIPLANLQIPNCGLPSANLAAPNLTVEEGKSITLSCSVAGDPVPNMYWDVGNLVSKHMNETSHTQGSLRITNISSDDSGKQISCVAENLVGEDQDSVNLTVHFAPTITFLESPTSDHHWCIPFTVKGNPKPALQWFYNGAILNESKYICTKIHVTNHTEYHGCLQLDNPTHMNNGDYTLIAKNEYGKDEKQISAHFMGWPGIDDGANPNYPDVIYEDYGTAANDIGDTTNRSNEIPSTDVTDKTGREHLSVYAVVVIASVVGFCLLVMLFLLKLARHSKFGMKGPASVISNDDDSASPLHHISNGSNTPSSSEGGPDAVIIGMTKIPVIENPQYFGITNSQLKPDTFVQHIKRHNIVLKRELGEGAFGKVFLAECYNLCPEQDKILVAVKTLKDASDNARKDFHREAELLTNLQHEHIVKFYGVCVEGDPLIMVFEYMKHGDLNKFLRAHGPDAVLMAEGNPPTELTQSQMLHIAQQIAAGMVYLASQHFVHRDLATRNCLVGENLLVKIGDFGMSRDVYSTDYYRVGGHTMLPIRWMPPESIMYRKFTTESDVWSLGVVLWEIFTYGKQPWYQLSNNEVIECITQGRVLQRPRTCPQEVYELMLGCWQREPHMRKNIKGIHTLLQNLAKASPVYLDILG
# Counter-ions that a name gives are not always drawn. The list shows a part of the results. Hit calls seldom repeat between salt and free forms of one compound.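 Kinases were expressed as nanoluciferase fusions in K562 cells and luminescence was read every 4 h between 2 and 18 h as percent of control, DMSO set to 100% and a positive control to 0%. A time point counts as decreased when the signal drops significantly (2 sigma). The hit call is the authors' own, does not follow from the count of time points alone, and its rule is not shown.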
# Target: NTRK2 (UniProt Q16620)
# Assay: number of time points (of 5) at which kinase-Nluc abundance scored as decreased, DMSO-normalised (count); higher = more persistent destabilization
# Settings: K562; 2-18 h
row,Compound,number of time points
1,Nc1nc2ccc(Cl)cc2c2nc(-c3ccco3)nn12 (10 µM),0
2,O=C(CSC1=NCCN1)NC1CCCCCC1 [ICCB-19 (hydrochloride)] (2.5 µM),0
3,O=Nc1c(-c2c(O)[nH]c3ccc(I)cc23)[nH]c2ccccc12 [5-Iodo-indirubin-3'-monoxime] (10 µM),0
4,Nc1nc(F)nc2c1ncn2[C@@H]1O[C@H](CO)[C@@H](O)[C@@H]1O [Fludarabine] (10 µM),0
5,Cc1cc(=O)oc2c(C=O)c(O)ccc12 (10 µM),0
6,C[C@@H]1CC[C@@H](Nc2nc(NC(C)(C)C)ncc2C(N)=O)C[C@H]1O (10 µM),0
7,NC(=O)c1nc(Nc2ccccc2)sc1NC(=O)C1CCCCC1 (10 µM),0
